± gives the standard deviation of the averaged measurements. The list shows a part of the results.
Compound: Nc1nc2c(ncn2[C@@H]2O[C@H](COP(=O)(O)OP(=O)(O)OP(=O)(O)O)[C@@H](O)[C@H]2O)c(=O)[nH]1 [guanosine triphosphate]
Test: NP40-soluble protein abundance relative to vehicle (solubility fold change) (ratio); higher = more soluble protein in presence of GTP
Outline: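 Crude Jurkat lysate, prepared by Dounce homogenisation, was exposed to eight concentrations from 0.1 to 10 mM for 10 min at room temperature and then 3 min at 37 °C. Solubilisation used 0.8% NP40 with benzonase for 60 min at 4 °C, followed by ultracentrifugation and TMT labelling of the supernatant for LC-MS/MS. After vsn normalisation of intensities, each value is the fold change against the detergent-processed vehicle within each replicate, across three independent experiments.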

Chains of the proteins cited; added tags and fusions are not shown. Lines headed by an entry give the natural chain unless they say otherwise; changes in a name come on top.
UniProt Q00839, whole entry: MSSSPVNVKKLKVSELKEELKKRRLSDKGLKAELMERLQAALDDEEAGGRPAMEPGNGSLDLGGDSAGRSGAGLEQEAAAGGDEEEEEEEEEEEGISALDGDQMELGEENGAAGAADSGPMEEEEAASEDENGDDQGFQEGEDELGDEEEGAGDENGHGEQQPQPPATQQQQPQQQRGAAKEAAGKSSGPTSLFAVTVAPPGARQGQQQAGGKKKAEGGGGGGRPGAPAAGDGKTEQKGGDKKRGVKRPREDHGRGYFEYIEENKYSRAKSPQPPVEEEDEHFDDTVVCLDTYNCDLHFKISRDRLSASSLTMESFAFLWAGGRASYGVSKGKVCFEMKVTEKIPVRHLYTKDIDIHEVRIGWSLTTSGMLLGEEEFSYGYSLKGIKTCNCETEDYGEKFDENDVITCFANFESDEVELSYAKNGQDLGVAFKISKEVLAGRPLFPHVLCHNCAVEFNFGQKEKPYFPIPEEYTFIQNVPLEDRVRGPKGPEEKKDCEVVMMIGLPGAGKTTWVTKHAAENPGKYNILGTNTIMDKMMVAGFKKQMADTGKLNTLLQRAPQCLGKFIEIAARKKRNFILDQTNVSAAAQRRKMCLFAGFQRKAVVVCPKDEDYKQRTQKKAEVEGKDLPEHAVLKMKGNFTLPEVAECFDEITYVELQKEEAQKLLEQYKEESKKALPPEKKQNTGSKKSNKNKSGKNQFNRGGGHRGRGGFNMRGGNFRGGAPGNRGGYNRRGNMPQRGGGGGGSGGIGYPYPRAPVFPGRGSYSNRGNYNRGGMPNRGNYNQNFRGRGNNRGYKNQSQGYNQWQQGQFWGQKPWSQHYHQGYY
UniProt Q13686: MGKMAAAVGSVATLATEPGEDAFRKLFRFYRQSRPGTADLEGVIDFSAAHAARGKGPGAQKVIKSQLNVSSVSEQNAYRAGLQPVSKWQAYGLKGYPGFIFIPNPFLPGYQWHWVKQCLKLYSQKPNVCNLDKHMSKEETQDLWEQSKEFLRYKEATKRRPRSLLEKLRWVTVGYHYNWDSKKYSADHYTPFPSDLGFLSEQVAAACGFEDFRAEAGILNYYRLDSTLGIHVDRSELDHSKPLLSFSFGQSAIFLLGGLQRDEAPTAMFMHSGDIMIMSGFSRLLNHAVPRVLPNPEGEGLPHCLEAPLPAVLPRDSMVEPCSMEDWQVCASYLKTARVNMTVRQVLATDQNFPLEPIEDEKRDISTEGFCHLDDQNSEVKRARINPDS
UniProt Q10471: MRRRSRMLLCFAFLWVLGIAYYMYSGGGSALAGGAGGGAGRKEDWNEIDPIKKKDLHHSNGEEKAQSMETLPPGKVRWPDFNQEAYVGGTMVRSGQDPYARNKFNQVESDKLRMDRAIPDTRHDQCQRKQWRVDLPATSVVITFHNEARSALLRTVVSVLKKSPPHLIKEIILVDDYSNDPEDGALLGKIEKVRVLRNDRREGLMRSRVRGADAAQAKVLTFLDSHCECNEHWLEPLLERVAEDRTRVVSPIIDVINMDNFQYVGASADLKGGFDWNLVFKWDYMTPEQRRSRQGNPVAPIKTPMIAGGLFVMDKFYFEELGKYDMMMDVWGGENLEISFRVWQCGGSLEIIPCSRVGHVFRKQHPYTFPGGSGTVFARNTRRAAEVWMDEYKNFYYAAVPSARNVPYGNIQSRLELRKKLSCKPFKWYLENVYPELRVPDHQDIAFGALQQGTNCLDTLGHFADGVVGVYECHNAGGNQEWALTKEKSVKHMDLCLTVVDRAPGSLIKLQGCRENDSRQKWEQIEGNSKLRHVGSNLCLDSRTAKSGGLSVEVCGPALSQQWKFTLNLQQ
UniProt Q13564: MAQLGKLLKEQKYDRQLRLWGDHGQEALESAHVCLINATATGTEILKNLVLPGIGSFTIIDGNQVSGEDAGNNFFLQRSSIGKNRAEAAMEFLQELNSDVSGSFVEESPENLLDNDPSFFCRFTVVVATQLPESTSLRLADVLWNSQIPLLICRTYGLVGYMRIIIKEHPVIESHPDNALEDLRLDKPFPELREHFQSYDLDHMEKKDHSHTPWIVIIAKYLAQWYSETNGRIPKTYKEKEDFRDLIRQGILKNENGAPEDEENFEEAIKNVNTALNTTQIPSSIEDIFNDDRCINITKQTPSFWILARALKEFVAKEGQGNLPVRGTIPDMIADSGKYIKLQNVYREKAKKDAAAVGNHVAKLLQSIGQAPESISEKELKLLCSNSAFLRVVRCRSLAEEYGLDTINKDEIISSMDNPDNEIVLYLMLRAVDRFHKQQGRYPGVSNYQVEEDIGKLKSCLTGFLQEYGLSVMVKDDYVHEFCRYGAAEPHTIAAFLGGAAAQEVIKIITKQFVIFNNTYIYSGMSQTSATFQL
UniProt Q13795: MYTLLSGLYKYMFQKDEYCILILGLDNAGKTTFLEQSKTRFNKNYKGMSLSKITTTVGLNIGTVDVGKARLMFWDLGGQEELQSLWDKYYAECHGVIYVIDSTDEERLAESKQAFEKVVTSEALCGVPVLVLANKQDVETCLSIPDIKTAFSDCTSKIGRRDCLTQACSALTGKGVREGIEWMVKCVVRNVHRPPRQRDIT
UniProt Q14061: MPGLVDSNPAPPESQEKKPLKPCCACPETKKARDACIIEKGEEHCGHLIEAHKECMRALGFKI
UniProt Q03164, whole entry: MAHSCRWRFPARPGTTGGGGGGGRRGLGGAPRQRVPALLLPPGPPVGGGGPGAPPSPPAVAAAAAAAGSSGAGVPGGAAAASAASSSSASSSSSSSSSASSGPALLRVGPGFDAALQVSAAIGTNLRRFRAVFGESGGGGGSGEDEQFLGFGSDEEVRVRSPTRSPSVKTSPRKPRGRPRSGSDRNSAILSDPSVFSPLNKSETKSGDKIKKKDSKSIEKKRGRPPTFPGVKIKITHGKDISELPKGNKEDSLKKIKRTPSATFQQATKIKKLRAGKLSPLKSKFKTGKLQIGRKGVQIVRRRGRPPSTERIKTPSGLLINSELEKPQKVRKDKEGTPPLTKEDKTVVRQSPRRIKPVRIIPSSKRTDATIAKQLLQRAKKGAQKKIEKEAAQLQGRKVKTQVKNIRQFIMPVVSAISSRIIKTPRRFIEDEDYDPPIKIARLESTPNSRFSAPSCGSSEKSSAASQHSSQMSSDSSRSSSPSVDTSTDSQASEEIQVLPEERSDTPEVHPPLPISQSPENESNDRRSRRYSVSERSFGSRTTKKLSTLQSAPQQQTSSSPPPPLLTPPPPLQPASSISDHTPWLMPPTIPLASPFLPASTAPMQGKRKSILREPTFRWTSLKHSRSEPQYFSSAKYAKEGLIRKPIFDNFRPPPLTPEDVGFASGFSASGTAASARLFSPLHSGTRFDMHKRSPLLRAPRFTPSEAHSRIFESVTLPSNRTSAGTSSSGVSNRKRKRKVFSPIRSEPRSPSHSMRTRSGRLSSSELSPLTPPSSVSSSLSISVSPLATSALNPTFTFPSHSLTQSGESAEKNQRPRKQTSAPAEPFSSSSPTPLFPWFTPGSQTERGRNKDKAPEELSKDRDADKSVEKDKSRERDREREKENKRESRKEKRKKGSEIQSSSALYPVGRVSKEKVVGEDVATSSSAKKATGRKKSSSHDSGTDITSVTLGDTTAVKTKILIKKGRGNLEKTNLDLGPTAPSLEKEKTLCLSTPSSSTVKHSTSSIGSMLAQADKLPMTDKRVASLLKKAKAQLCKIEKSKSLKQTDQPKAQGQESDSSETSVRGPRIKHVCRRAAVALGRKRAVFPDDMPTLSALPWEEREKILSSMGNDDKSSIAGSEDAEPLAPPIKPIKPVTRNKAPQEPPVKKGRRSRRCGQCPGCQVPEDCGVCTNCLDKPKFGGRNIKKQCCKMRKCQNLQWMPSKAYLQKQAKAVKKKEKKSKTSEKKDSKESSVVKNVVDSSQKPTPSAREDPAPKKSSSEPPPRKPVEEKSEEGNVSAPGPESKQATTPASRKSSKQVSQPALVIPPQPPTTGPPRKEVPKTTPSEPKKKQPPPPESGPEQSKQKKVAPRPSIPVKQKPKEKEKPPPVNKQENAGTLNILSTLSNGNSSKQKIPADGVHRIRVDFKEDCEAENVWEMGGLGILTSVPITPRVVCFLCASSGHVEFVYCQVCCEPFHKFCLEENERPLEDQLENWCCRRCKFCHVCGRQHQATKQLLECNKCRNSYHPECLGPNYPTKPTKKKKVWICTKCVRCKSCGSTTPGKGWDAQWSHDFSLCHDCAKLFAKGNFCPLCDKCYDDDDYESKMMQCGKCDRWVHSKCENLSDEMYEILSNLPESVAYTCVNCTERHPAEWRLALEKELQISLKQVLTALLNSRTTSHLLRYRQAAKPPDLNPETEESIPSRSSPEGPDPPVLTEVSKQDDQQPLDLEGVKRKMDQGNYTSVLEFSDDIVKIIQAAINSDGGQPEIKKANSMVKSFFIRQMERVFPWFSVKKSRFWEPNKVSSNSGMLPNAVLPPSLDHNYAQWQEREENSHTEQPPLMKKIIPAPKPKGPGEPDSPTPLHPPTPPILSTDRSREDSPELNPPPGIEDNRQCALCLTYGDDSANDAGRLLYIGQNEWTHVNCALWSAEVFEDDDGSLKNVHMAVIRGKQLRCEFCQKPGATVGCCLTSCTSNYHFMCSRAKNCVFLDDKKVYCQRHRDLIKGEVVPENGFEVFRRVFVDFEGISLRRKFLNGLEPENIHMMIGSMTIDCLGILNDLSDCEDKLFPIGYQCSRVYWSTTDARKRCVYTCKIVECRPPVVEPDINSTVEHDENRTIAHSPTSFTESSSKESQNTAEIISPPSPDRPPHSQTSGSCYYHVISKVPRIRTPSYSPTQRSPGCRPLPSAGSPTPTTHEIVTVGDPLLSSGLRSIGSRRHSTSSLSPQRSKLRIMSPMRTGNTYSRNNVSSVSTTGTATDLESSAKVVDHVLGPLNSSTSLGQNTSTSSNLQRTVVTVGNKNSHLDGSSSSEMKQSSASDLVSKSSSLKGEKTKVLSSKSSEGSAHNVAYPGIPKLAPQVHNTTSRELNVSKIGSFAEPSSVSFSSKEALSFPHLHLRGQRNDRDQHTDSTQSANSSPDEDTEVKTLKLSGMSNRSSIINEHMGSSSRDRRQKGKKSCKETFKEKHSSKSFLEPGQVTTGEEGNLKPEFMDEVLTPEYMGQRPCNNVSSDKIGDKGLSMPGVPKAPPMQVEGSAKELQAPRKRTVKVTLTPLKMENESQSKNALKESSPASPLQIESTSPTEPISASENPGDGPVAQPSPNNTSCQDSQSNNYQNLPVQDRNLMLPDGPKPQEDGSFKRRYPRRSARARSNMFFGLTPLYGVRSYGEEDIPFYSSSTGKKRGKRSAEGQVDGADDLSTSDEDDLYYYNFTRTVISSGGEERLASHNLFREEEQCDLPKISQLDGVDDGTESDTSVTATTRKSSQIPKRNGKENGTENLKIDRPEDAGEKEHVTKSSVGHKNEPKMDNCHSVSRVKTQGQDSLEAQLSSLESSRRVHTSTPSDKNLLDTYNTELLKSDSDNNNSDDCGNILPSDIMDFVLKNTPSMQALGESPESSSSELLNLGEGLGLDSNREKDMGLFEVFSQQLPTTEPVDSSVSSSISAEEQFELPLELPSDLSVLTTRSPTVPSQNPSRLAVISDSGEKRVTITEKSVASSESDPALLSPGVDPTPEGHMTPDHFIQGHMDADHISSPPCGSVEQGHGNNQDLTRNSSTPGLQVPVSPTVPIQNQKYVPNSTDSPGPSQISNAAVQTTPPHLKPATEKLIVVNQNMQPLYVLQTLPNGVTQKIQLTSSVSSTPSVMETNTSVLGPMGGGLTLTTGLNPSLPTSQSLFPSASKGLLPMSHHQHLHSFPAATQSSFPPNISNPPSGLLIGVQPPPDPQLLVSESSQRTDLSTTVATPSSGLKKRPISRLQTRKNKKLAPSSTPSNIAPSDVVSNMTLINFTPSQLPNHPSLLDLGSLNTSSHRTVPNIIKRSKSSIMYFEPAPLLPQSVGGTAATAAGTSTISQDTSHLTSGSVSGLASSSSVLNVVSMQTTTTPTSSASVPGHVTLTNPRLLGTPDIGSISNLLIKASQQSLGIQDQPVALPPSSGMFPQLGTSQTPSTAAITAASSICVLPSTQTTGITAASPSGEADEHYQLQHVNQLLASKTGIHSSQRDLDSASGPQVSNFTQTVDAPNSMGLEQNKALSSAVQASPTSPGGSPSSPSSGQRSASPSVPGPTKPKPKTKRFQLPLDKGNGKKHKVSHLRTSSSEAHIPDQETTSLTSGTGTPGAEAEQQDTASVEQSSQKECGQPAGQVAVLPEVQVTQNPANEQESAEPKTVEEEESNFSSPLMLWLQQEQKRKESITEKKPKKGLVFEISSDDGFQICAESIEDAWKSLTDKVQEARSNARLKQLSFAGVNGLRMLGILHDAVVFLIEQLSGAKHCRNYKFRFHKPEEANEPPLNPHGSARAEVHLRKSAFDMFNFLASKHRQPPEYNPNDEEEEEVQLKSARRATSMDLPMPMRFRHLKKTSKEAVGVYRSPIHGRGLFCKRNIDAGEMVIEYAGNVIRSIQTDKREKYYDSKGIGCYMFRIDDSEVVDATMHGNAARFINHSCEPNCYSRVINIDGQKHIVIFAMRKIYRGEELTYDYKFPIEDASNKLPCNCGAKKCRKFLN

Target | NP40-soluble protein abundance (concentration: 0.1mM) | NP40-soluble protein abundance (concentration: 0.5mM) | NP40-soluble protein abundance (concentration: 1mM) | NP40-soluble protein abundance (concentration: 2mM) | NP40-soluble protein abundance (concentration: 4mM) | NP40-soluble protein abundance (concentration: 6mM) | NP40-soluble protein abundance (concentration: 8mM) | NP40-soluble protein abundance (concentration: 10mM)
PAK1 (UniProt Q13153) | 0.979 ± 0.071 | 0.988 ± 0.053 | 0.956 ± 0.048 | 0.944 ± 0.068 | 0.936 ± 0.051 | 0.959 ± 0.052 | 0.951 ± 0.049 | 0.974 ± 0.077
UniProt Q00839 and related entries | 1.02 ± 0.049 | 1.12 ± 0.11 | 1.16 ± 0.19 | 1.21 ± 0.23 | 1.27 ± 0.3 | 1.26 ± 0.29 | 1.29 ± 0.33 | 1.2 ± 0.29
ALKBH1 (UniProt Q13686) | 0.892 ± 0.043 | 0.918 ± 0.052 | 0.948 ± 0.1 | 0.927 ± 0.071 | 0.964 ± 0.019 | 0.887 ± 0.044 | 1.06 ± 0.049 | 0.796 ± 0.047
PDIA5 (UniProt Q14554) | 1.03 ± 0.041 | 1 ± 0.047 | 0.964 ± 0.064 | 0.968 ± 0.07 | 1 ± 0.072 | 0.993 ± 0.064 | 0.995 ± 0.037 | 0.976 ± 0.07
UniProt Q05519 and related entries | 1.13 ± 0.071 | 1.26 ± 0.11 | 1.39 ± 0.15 | 1.26 ± 0.14 | 1.31 ± 0.13 | 1.25 ± 0.12 | 1.39 ± 0.19 | 1.32 ± 0.19
GALNT2 (UniProt Q10471) | 1.02 ± 0.025 | 0.97 ± 0.021 | 0.9568 ± 0.0034 | 0.917 ± 0.014 | 0.928 ± 0.022 | 0.901 ± 0.012 | 0.927 ± 0.046 | 0.861 ± 0.052
MRPL49 (UniProt Q13405) | 1.02 ± 0.1 | 1.06 ± 0.14 | 1.23 ± 0.3 | 1.35 ± 0.31 | 1.38 ± 0.42 | 1.36 ± 0.37 | 1.35 ± 0.29 | 1.37 ± 0.42
UniProt Q13564 and related entries | 1.02 ± 0.016 | 1.016 ± 0.0095 | 1.01 ± 0.028 | 0.98 ± 0.041 | 0.962 ± 0.043 | 0.939 ± 0.055 | 0.978 ± 0.031 | 0.936 ± 0.037
UniProt Q13427 and related entries | 0.978 ± 0.092 | 1.11 ± 0.12 | 1.18 ± 0.13 | 1.16 ± 0.098 | 1.09 ± 0.13 | 1.12 ± 0.12 | 1.21 ± 0.18 | 1.2 ± 0.2
UniProt Q13795 and related entries | 1.09 ± 0.045 | 1.06 ± 0.12 | 0.994 ± 0.044 | 0.968 ± 0.031 | 0.937 ± 0.036 | 0.92 ± 0.065 | 0.87 ± 0.029 | 0.873 ± 0.1
TFDP1 (UniProt Q14186) | 1.01 ± 0.075 | 1.01 ± 0.063 | 1.03 ± 0.055 | 0.9671 ± 0.0086 | 0.997 ± 0.035 | 0.96 ± 0.04 | 0.983 ± 0.021 | 0.971 ± 0.029
COX17 (UniProt Q14061) | 1.02 ± 0.042 | 0.9835 ± 0.0056 | 1.06 ± 0.026 | 0.996 ± 0.082 | 0.977 ± 0.023 | 0.941 ± 0.062 | 1.08 ± 0.024 | 1.032 ± 0.0052
UniProt Q03164 and related entries | 1.07 ± 0.051 | 1.09 ± 0.064 | 1.13 ± 0.08 | 1.16 ± 0.045 | 1.24 ± 0.073 | 1.29 ± 0.086 | 1.34 ± 0.12 | 1.37 ± 0.09
UniProt Q04656 and related entries | 1.01 ± 0.13 | 1.01 ± 0.059 | 0.971 ± 0.096 | 1.01 ± 0.079 | 0.951 ± 0.052 | 1.02 ± 0.015 | 0.972 ± 0.11 | 0.924 ± 0.087
UBE2V1 (UniProt Q13404) | 0.942 ± 0.037 | 0.896 ± 0.019 | 0.876 ± 0.031 | 0.873 ± 0.039 | 0.861 ± 0.051 | 0.852 ± 0.038 | 0.848 ± 0.1 | 0.849 ± 0.067

Just NP40-soluble protein abundance (concentration: 1mM), for some of the entries so far:
Target,NP40-soluble protein abundance (concentration: 1mM)
PAK1 (UniProt Q13153),0.956 ± 0.048
PDIA5 (UniProt Q14554),0.964 ± 0.064

Reference: the supplement of paper PMC6411743
